For some of these results: No signal at the amounts used counts as a negative. For some of these results: At least one verdict rests on a figure or table, not on a statement of the authors. For some of these results: Tags and fusion partners may be left off the protein sequences shown. For some of these results: A weaker result is weaker than the reference pair of the same experiment. Construct, isoform or probe ends are uncertain for at least one entry.
Columns and labels:
[1] = target: T1, NBD (nonamer binding domain of RAG1) (mouse) (UniProt P15919); experiment: EMSA; details: 5 mM Ca2+, NBD EMSA: 10 mM Tris-HCl pH 7.5, 33 mM KCl, 5 mM CaCl2, 2 mM DTT, 0.1 mg/ml BSA, 6% glycerol, 15 min 30 C, recombinant protein, residues 384-461, protein details: N-terminal His6 (pET28a)
T1 sequence (looked up): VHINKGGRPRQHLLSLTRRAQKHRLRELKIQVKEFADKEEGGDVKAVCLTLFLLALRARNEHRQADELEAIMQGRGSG

[2] = test system: MBP-cRAG1 (core RAG1) + cRAG2 (core RAG2); experiment: EMSA; details: cRAG buffer, NBD EMSA: 10 mM Tris-HCl pH 7.5, 33 mM KCl, 5 mM CaCl2, 2 mM DTT, 0.1 mg/ml BSA, 6% glycerol, 15 min 30 C, recombinant protein, protein details: MBP,MBP
[3] = target: T1, NBD (nonamer binding domain of RAG1) (mouse); experiment: BLI; details: 1x PBS, 30 C, 1:1 fit, BLI: 1x PBS, recombinant protein, residues 384-461, protein details: N-terminal His6 (pET28a)
[4] = label: 5' 32P, single-stranded DNA

Sequence	binding result [1, 4]	also measured
AAAAAAAAAAAAAAAAAAAAAAAAAAAAAAAAAAA [ss poly A 35 (IX, MS5)]	no binding	binding result [2, 4]: no binding
GAGTCTGATCTTACCTCTTAACTTCGCTACCTTTT [XXXV, 4 T at 3' end (DR61)]	binds more weakly	
GAGTCTGATCTTACCTCTTAACTTCGCTACCATTT [XXXVI, 3 T at 3' end (DR62)]	binds more weakly	
TAGCAGGGTTTTTGTTCCAGTCTGTAGCACTGTGGTAGCTATCAGCTGAT [XXVI, 50 nt ssDNA with 5 internal T (AKN2)]	no binding	
GAGACTGATCTTACCTCTTAACTACTTTTTGACAC [XXXII, internal T stretch (MS25)]	binds more weakly	
GATCAGCTGATAGCTACCACAGTGCTACAGACTGGAACAAAAACCCTGCT / TAGCAGGGTTTTTGTTCCAGTCTGTAGCACTGTGGTAGCTATCAGCTGAT [biotinylated 12RSS (50 bp)]		Kd [3]: 4.02 µM
GACCTGAGGGCGAGCTTTTTTCGAGTAACTTAACAG [XXXIV, 6 T in centre (AKN11)]	binds more weakly	
TTTTTTTTTTTTTTTTTTTTTTTTTTTTTTTTTTT (double strand) [ds A/T 35 bp (XIII, MS3/MS5)]		binding result ([1]; label: 5' 32P on MS3): binds; binding result ([2]; much less than 12RSS, label: 5' 32P on MS3): binds more weakly
